PubChem BioAssay AID493246, Drosophila RNAi Screening Center, 2011
Purpose: 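Genome-wide search for dsRNAs that reduce cell number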 (primary screen). System: Drosophila Kc and S2R+ cells. Knock-down reagent: long dsRNA against Drosophila genes. Read-out: 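Cell number per well after knock-down, printed as raw plate values; calls were based on per-plate z-scores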. Scale: Kc cell number and S2R+ cell number: higher = more cells remaining. Call rule: 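Counted as a hit if cell number falls by a z-score of at least 3 within its plate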.
The deposit covers about 21,000 reagents; below is an unselected part of those with a known target gene and a result. Over the whole deposit, 429 (2%) are marked active. 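Values are raw and not normalised between plates; calls rest on per-plate z-scores that were not deposited.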 Names joined by + are all predicted targets of the reagent. Not given: the amount of reagent, the time to read-out.

predicted target	amplicon	Kc cell number, rep 1	Kc cell number, rep 2	S2R+ cell number, rep 1	S2R+ cell number, rep 2	activity call
Ir67a	DRSC09897	1.45e6	1.45e6	1.39e6	1.52e6	inactive
Csk	DRSC12861	1.40e6	1.55e6	1.03e6	1.16e6	inactive
Csk	DRSC15223	1.37e6	1.47e6	1.00e6	1.09e6	inactive
CG12929	DRSC06242	1.85e6	2.03e6	1.37e6	1.49e6	inactive
Rpt4	DRSC18713	8.90e5	8.86e5	6.71e5	7.70e5	active
CG4709	DRSC02772	1.32e6	1.42e6	1.08e6	1.21e6	inactive
CycG	DRSC14324	4.75e5		5.81e5		inactive
NetA	DRSC20261	1.50e6	1.47e6	1.09e6	1.14e6	inactive
CG13510	DRSC04152	1.54e6	1.58e6	1.36e6	1.27e6	inactive
CG6937	DRSC16140	1.69e6	1.61e6	8.25e5	9.16e5	inactive
Tsen34 + Trl	DRSC10014	1.37e6	1.36e6	1.19e6	1.29e6	inactive
UBL3	DRSC20298	1.54e6	1.55e6	1.05e6	1.21e6	inactive
CG15480	DRSC02490	1.69e6	1.66e6	1.37e6	1.51e6	inactive
CG31407	DRSC12761	1.42e6	1.56e6	1.07e6	1.21e6	inactive
CG16956	DRSC02544	1.51e6	1.53e6	1.33e6	1.43e6	inactive
CG15141	DRSC02441	1.38e6	1.48e6	1.28e6	1.36e6	inactive
CG15141	DRSC02442	1.47e6	1.55e6	1.23e6	1.37e6	inactive
Cyp4g1	DRSC18459	4.94e5		7.27e5		inactive
CG5399	DRSC15791	1.26e6	1.35e6	1.15e6	1.24e6	inactive
Invadolysin	DRSC15527	1.74e6	1.81e6	1.37e6	1.55e6	inactive
CG14621	DRSC20635	1.44e6	1.47e6	1.00e6	1.13e6	inactive
Ets96B	DRSC16127	1.57e6	1.50e6	1.04e6	1.12e6	inactive
CG2006 + Spase12	DRSC14316	1.51e6	1.53e6	9.92e5	1.14e6	inactive
CG3091	DRSC18274	1.52e6	1.59e6	1.06e6	1.27e6	inactive
bon	DRSC16914	1.26e6	1.27e6	1.01e6	1.09e6	inactive
CG8519	DRSC10985	1.52e6	1.69e6	1.11e6	1.14e6	inactive
Ance-4	DRSC07104	1.60e6	1.59e6	1.19e6	1.21e6	inactive
nmdyn-D7	DRSC17016	1.47e6	1.42e6	1.29e6	1.35e6	inactive
Cyp12e1	DRSC16622	1.54e6	1.55e6	1.39e6	1.44e6	inactive
Slc45-1	DRSC10427	1.61e6	1.56e6	1.17e6	1.12e6	inactive
CG11112	DRSC06038	1.61e6	1.64e6	1.35e6	1.45e6	inactive
CG14315	DRSC14794	1.38e6	1.41e6	1.12e6	1.24e6	inactive
slx1	DRSC12290	1.52e6	1.53e6	1.39e6	1.48e6	inactive
CG13894	DRSC08364	1.51e6	1.46e6	6.74e5	8.12e5	inactive
CG30487	DRSC05377	1.57e6	1.53e6	1.05e6	1.26e6	inactive
Gnmt	DRSC15987	1.56e6	1.59e6	1.32e6	1.42e6	inactive
Rpn10	DRSC11876	1.23e6	1.26e6	8.09e5	9.29e5	active
Hsc70-4	DRSC16711	1.01e6	1.04e6	6.89e5	7.88e5	inactive
CG10298	DRSC12522	1.55e6	1.69e6	1.27e6	1.33e6	inactive
CG16894	DRSC06634	1.42e6	1.42e6	1.14e6	1.18e6	inactive

5 successive records already listed:
predicted target	amplicon	Kc cell number, rep 1	Kc cell number, rep 2	S2R+ cell number, rep 1	S2R+ cell number, rep 2	activity call
Gnmt	DRSC15987	1.56e6	1.59e6	1.32e6	1.42e6	inactive
Rpn10	DRSC11876	1.23e6	1.26e6	8.09e5	9.29e5	active
Hsc70-4	DRSC16711	1.01e6	1.04e6	6.89e5	7.88e5	inactive
CG10298	DRSC12522	1.55e6	1.69e6	1.27e6	1.33e6	inactive
CG16894	DRSC06634	1.42e6	1.42e6	1.14e6	1.18e6	inactive
